Values of other authors in patent publication US20060130162A1, “Shrimp and the production thereof” (priority 2002, published 2006).

System: shrimp
Conditions: Boyle et al. 1992b; cited from earlier work

First: Oc1c(Br)cc(Br)cc1Br [2,4,6-tribromophenol]
Second: Oc1c(Br)cccc1Br [2,6-dibromophenol]
The “Level present in the shrimp that can impart full fresh shrimp flavor” value of the first is higher: 20 ppb for the first, 4 ppb for the second.

Compared with Oc1ccccc1Br [2-bromophenol], Oc1cccc(Br)c1 [3-bromophenol] is higher in “Level present in the shrimp that can impart full fresh shrimp flavor” value: 20 ppb for the first, 40 ppb for the second.
